Reference: PubChem BioAssay AID1671190 (National Center for Advancing Translational Sciences (NCATS), 2021)
“And” between values parts separate entries of the source, which are not always exact repeats. Equal values may be shown once. Hit rate of the full screen: of about 580,000 compounds, about 6,100 (1.1%) were called active. This list was built around the results that the source calls inconclusive (neither active nor inactive); the mix of calls is not that of the screen. Calls follow the shape of the dose curve; as a rule, active = well fitted inhibition curve with a large enough effect; inconclusive = small, poorly fitted or top-dose-only effect, or another doubt; inactive = no such curve, though single readings can be large or run the other way. Potencies of inconclusive entries are doubtful fits and often do not repeat.

By UniProt entry, the sequences of proteins in these tests, tags left out. Where a name states a change or a piece, a line headed by the entry shows the natural chain unless it says otherwise.
UniProt P18054: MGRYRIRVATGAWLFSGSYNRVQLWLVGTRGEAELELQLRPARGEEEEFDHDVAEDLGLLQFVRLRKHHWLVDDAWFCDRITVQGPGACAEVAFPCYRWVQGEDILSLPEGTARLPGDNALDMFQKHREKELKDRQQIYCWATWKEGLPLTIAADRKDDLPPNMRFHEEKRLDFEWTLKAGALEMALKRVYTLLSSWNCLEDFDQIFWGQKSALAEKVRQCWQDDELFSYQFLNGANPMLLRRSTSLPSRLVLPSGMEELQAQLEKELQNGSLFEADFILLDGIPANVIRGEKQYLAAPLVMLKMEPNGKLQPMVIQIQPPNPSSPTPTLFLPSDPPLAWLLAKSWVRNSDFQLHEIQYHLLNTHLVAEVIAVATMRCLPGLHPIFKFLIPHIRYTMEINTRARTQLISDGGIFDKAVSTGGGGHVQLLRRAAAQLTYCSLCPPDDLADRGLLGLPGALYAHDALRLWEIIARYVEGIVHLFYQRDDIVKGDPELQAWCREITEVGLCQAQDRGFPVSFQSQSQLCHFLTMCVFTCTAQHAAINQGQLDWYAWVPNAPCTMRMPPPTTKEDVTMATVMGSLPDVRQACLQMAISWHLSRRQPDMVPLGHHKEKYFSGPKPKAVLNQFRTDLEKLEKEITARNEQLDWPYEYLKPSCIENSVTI

What follows are compounds tested against Polyunsaturated fatty acid lipoxygenase ALOX12 (Homo sapiens) (UniProt P18054) (assay: Primary qHTS assay for inhibitors of human arachidonate 12S-lipoxygenase (ALOX12): Round 2). Details: purified 12hLO, xylenol orange hydroperoxide absorbance; activity change, negative = inhibition: at 108 µM (top of the series) unless noted.
How it was run: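 Purified human 12hLO (150 nM final) in 25 mM Hepes, 0.01% Triton X-100, pH 7.0 was preincubated 15 min at room temperature with compound. Then 40 uM arachidonic acid was added, 30 min. Hydroperoxide was read by Fe-XO absorbance ratio 573/405 nm.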
% is scaled to controls: 0 for no effect and ±100 for the full control effect; potency is read from the fitted curve at half-maximal effect.

Row | Compound | Potency | activity change, negative = inhibition
1 | CCN1C(=O)N(c2ccc(C(C)=O)cc2)S(=O)(=O)c2ccccc21 | inconclusive: 35.5 µM [inhibitor, single point] | 
2 | COc1ccc(-n2nnc3c(SC(C(C)=O)C(=O)N(C)C)ncnc32)cc1 (stereo unspecified) | inconclusive: 35.5 µM [inhibitor, partial curve, poor fit] | 
3 | CCCc1cc(=O)[nH]c(N/N=C/C=C\c2ccccc2)n1 |  | inactive: 4.09%
4 | O=C(Nc1ccc(F)c(F)c1F)C12CC3CC(CC(Cl)(C3)C1)C2 | inconclusive: 50.1 µM [inhibitor, partial curve, poor fit] | 
5 | Cc1cc(Br)ccc1NC(=O)CN(C)C(=O)CNC(=O)Cc1ccccc1 | inconclusive: 56.2 µM [inhibitor, partial curve, poor fit] | 
6 | Cc1ccccc1Nc1c(-c2cccnc2)nc2cccc(C)n12 | inactive and inconclusive: 141 µM [inhibitor, partial curve, poor fit] | 
7 | CNC(=O)C1CCCCN1C(=O)Cc1nc(-c2ccccc2)oc1C (stereo unspecified) |  | inactive: -25.1%
8 | COC(=O)c1cn(C(=O)c2cccc(Br)c2)c2ccccc12 | inconclusive: 44.7 µM [inhibitor, single point] | 
9 | Nc1nc(CN2CCc3ccccc3C2)nc(Nc2ccccc2)n1 |  | inactive: 0%
10 | Cn1nc(-c2ccc(OCC(=O)Nc3ccc(Cl)cc3)cc2)c2ccccc2c1=O |  | inactive: -7.11%
11 | N#C/C(=C\c1c[nH]c2ccccc12)c1ccccc1 | inconclusive: 44.7 µM [inhibitor, partial curve, poor fit] | 
12 | CC(C)=CCc1c(O)c(CC=C(C)C)c2occ(-c3ccc(O)cc3)c(=O)c2c1O | inconclusive: 44.7 µM [inhibitor, partial curve, poor fit] | 
13 | COc1ccc(S(=O)(=O)Nc2cc3c(C(C)=O)c(C)oc3c3ccccc23)cc1 |  | inactive: 40.5%
14 | O=C(CSc1nc2ccccc2c(=O)n1CCCN1CCOCC1)c1ccc2ccccc2c1 |  | inactive: 0.903%
15 | Cc1cccc(NC(=O)Cn2c(C)cc3ccccc32)c1 | inconclusive: 100 µM [inhibitor, single point] | 
16 | O=C(NCc1ccco1)C1CC(=O)N(c2ccc(Cl)cc2)C1 (stereo unspecified) |  | inconclusive: -35.2% [inhibitor]
17 | CCOC(=O)NC(CN)c1ccccc1 (stereo unspecified) |  | inactive: 8.77%
18 | Cc1cc(Nc2cccc(C(F)(F)F)c2)nc(NCc2ccccc2)n1 | inconclusive: 0.631 µM [inhibitor, full curve, poor fit] | 
19 | C/C(=N\NC(=O)C1CC1c1ccc(C(C)(C)C)cc1)c1ccc(Cl)cc1 (stereo unspecified) |  | inactive: 2.94%
20 | COc1cccc(-c2nc(N3CCOCC3)cc3c2CN(Cc2ccccc2)C3=O)c1OC | inconclusive: 89.1 µM [inhibitor, partial curve, poor fit] | 
21 | COc1ccc(NC(=O)C2C3CCC(C3)C2C(=O)O)cc1OC (stereo unspecified) | inconclusive: 70.8 µM [inhibitor, partial curve, poor fit] | 
22 | COc1cccc(/C=N/NC(=O)CSc2cccc3cccnc23)c1 | inconclusive: 79.4 µM [inhibitor, single point] | 

3 compounds already listed, sorted by formula weight, smallest number first:
Row | Compound | Potency | activity change, negative = inhibition
6 | Cc1ccccc1Nc1c(-c2cccnc2)nc2cccc(C)n12 | inactive and inconclusive: 141 µM [inhibitor, partial curve, poor fit] | 
9 | Nc1nc(CN2CCc3ccccc3C2)nc(Nc2ccccc2)n1 |  | inactive: 0%
12 | CC(C)=CCc1c(O)c(CC=C(C)C)c2occ(-c3ccc(O)cc3)c(=O)c2c1O | inconclusive: 44.7 µM [inhibitor, partial curve, poor fit] | 

More entries follow:

Row | Compound | Potency | activity change, negative = inhibition
23 | O=S(=O)(c1cccnc1)N1CCn2cccc2C1c1ccccc1F (stereo unspecified) | inconclusive: 8.91 µM [inhibitor, full curve, poor fit] and inconclusive: 56.2 µM [inhibitor, partial curve, poor fit] | 
24 | COc1ccc(OC)c(S(=O)(=O)Nc2cccc(CCc3nc4ccccc4n3C)c2)c1 | inconclusive: 35.5 µM [inhibitor, single point] | 
25 | CC(C)N(CC#CCC(O)(c1ccccc1)c1ccccc1)C(C)C |  | inactive: 4.94%
26 | c1ccc(CNCc2ccc(OCc3ccccc3)cc2)cc1 | inconclusive: 44.7 µM [inhibitor, partial curve, poor fit] | 
27 | COc1ccc(-c2cc(-c3c(O)c(OC)c4occc4c3OC)[nH]n2)cc1OC |  | inactive: -20.4% [at 57.4 µM]
28 | CN(C)c1cccc(C(=O)NCc2ccc(Cl)cc2)c1 |  | inactive: 0.973%
29 | COC(=O)[C@@]1(Sc2ccc(C)cc2)CC(=O)N[C@@H]1c1ccccc1 | inconclusive: 44.7 µM [inhibitor, partial curve, poor fit] | 
30 | COc1cccc(NC(=O)Cn2c(=O)ccc3cc(S(=O)(=O)N4CCC(C)CC4)ccc32)c1 | inconclusive: 50.1 µM [inhibitor, partial curve, poor fit] | 
31 | CCSc1nc2c([nH]c3ccccc32)c(=O)n1-c1cccc(OC)c1 | inconclusive: 50.1 µM [inhibitor, partial curve, poor fit] | 
32 | Cc1ccc(S(=O)(=O)[C@H]2CS(=O)(=O)C[C@@H]2NCCc2ccc(Cl)cc2)cc1 |  | inactive: 13.7%
33 | Clc1ccc(N=NN2CCOCC2)cc1 | inconclusive: 89.1 µM [inhibitor, partial curve, poor fit] | 
34 | CC1CCN(CCCNC2CCCCCC2)CC1 |  | inactive: -33.5%
35 | CN1C(C(=O)Nc2ncccn2)=C(O)c2ccccc2S1(=O)=O | inconclusive: 0.708 µM [inhibitor, full curve, poor fit] | 
36 | CC(C)(CC(=O)O)CC(=O)Nc1ccccc1C(C)(C)C | inconclusive: 44.7 µM [inhibitor, partial curve, poor fit] | 
37 | CCOC(=O)c1c(C)c(C(=O)NCc2ccco2)c(C)n1Cc1ccccc1 | inconclusive: 50.1 µM [inhibitor, partial curve, poor fit] | 
38 | Cc1ccc(N(C(=O)c2csnn2)C(C(=O)NC2CCCCC2)c2ccccn2)cc1 (stereo unspecified) |  | inactive: -14.4%
39 | COc1ccc(Cn2cc(C(=O)c3ccc(F)cc3)c(=O)c3cc4c(cc32)OCCO4)cc1 |  | inactive: -20%
40 | CCC(O)c1cc2n(n1)CCN(c1ncc(F)c(N3CCOCC3)n1)C2 (stereo unspecified) |  | inactive: 18.7%
41 | Cc1nc2c(OCC(=O)c3ccc(F)cc3)cccn2c1N(C)Cc1cccs1 | inconclusive: 39.8 µM [inhibitor, partial curve] | 
42 | CC(=O)Nc1nonc1-c1nnc(SCC(=O)Nc2cccc(C)c2C)n1-c1ccccc1 |  | inactive: -0.967%
43 | COc1ccccc1NS(=O)(=O)c1ccc(C(=O)NCc2ccco2)cc1 | inconclusive: 112 µM [inhibitor, single point] | 
44 | CN1CCC(OC2CCN(C(=O)c3cccc(Br)c3)CC2)CC1 |  | inactive: 25.1%

Row | Compound | Potency | activity change, negative = inhibition
45 | COCCCNC(=O)c1cc2cc(Cl)ccc2nc1C | inconclusive: 44.7 µM [inhibitor, partial curve, poor fit] | 
46 | Cc1nc(-c2ccc(S(=O)(=O)Nc3ccccc3)cc2)co1 |  | inactive: -6.11%
47 | COC(=O)c1c(-c2cc(C)ccc2C)csc1NC(=O)C1CC=CCC1C(=O)O (stereo unspecified) |  | inactive: -10.5%
48 | Cc1ccccc1N=C(c1ccccc1)C1C(=O)c2ccccc2C1=O | inconclusive: 31.6 µM [inhibitor, partial curve, poor fit] | 
49 | Cc1ccc(S(=O)(=O)N2[C@@H]3CC[C@H]2CC(NC(=O)c2ccncc2)C3)cc1 (stereo partly specified) | inconclusive: 70.8 µM [inhibitor, single point] | 
50 | CCCCc1nn2c(=O)cc(COC(=O)c3ccco3)nc2s1 |  | inactive: -25.8%
51 | CN(CC(=O)Nc1ccc(Oc2ccccc2)cc1)C1=NS(=O)(=O)c2ccccc21 | inconclusive: 141 µM [inhibitor, partial curve, poor fit] | 
52 | Cc1ccc(C(O)c2ncc(-c3cccc(F)c3)[nH]2)cc1 (stereo unspecified) | inconclusive: 5.01 µM [inhibitor, full curve, poor fit] | 
53 | O=C(O)COc1ccccc1/C=N/NC(=O)/C(=C\c1ccc2c(c1)OCO2)NC(=O)c1ccccc1 | inconclusive: 56.2 µM [inhibitor, partial curve, poor fit] | 
54 | COc1ccccc1NC(=O)c1c([N+](=O)[O-])c(C(C)(C)C)nn1C | inconclusive: 0.251 µM [inhibitor, full curve, poor fit] | 
55 | O=C(/C=C/c1ccc(F)cc1)N1CCc2ccccc2C1 | inconclusive: 126 µM [inhibitor, single point] | 
56 | COc1ccc(S(=O)(=O)NCCSCc2cccs2)cc1 | inconclusive: 50.1 µM [inhibitor, partial curve, poor fit] | 
57 | CC(=O)/C(N)=N/Nc1cccc(Cl)c1 | inconclusive: 44.7 µM [inhibitor, partial curve, poor fit] | 
58 | CC[C@H](C)[C@@H]1NC(=O)c2cc([N+](=O)[O-])cc(I)c2NCC[C@@H](C(N)=O)NC(=O)[C@H](CCCN=C(N)N)NC1=O | inconclusive: 56.2 µM [inhibitor, partial curve, poor fit] | 
59 | Cc1nn2c(c1-c1ccccc1-c1ccccc1)N(Cc1cccc(O)c1)CCC2 | inconclusive: 22.4 µM [inhibitor, full curve] | 
60 | CCCn1c(N)c(N(CCOC)C(=O)c2ccc(S(=O)(=O)N3CCOCC3)cc2)c(=O)[nH]c1=O | inconclusive: 15.8 µM [inhibitor, partial curve, poor fit] | 
61 | COc1ccc(/C=C2\Oc3cc(OS(=O)(=O)c4ccccc4)ccc3C2=O)cc1OC | inconclusive: 63.1 µM [inhibitor, partial curve, poor fit] | 
62 | COCCN1CC(CNc2nc(CCN)nc3sc(C)c(C)c23)CC1=O (stereo unspecified) | inconclusive: 11.2 µM [inhibitor, full curve, poor fit] | 
63 | C=CCn1c(SCC(=O)NC2CCCC2)nc2scc(-c3ccco3)c2c1=O | active: 44.7 µM | 
64 | Cc1onc(-c2ccccc2)c1C(=O)NC(=S)NNC(=O)c1cc(-c2ccc(F)cc2)n[nH]1 | active: 44.7 µM | 
65 | CCN(CC1CCCN(CCc2cccc(OC)c2)C1)C(=O)C=C(C)C (stereo unspecified) | inconclusive: 89.1 µM [inhibitor, single point] | 
66 | O=C(O)c1ccccc1-c1cccc2nncn12 | inconclusive: 70.8 µM [inhibitor, partial curve, poor fit] | 
